No constants are given. Whether binding was seen depends on the method and setting. In cells and extracts the contact can be indirect.
Molecular target: T1, endogenous UCP1 of mouse brown adipose tissue (mouse (endogenous in BAT)) (UniProt P12242)
T1 sequence: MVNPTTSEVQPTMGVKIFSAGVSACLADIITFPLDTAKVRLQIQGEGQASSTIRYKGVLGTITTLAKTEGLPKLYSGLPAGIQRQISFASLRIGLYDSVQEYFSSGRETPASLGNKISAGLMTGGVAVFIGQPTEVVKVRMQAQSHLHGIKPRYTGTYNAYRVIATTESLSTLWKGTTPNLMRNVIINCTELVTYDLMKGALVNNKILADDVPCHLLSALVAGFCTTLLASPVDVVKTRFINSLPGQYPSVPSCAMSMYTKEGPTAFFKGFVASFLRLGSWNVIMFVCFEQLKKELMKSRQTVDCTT
Assay: co-IP

binding: no binding
Substance: β-TrCP
